PubChem BioAssay AID504744 – Drosophila RNAi Screening Center, 2011
The deposit covers about 23,000 reagents; below is an unselected part of those that have a named target and a result. In the full data, 98 (0.43%) are marked active. 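Only hit calls are given; the phospho-dAkt signals, z-scores and hit direction were not deposited.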 A plus sign joins genes that one reagent is predicted to hit.

Test: 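Uncover factors, including feedback loops, that control dAkt activation in fly cells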 (primary screen)
Cells: Drosophila Kc167 cells
Knock-down reagent: long dsRNA against Drosophila genes, 250 ng dsRNA per well of a 384-well plate
Timing: 3 days of knock-down, then overnight serum-free starvation before stimulation
Conditions: bovine insulin at 387 nM for 10 minutes after 12 h without serum
Read-out: 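In-cell antibody fluorescence for phospho-dAkt in each well over DNA-dye signal, with log2 residuals expressed as z-scores adjusted for cell count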
Rule for the call: 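Hit in the insulin screen when the two-replicate mean z-score is more extreme than plus or minus 2.5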

For thoc6 [SID104190320], what was measured?
call: inactive

With CG13282 [SID104182046], what was measured?
call: inactive

With CG15514 [SID104194845], what was measured?
call: inactive

With CG13721 [SID104188122], what does the deposit list?
call: inactive

With Ugt37E1 [SID104182040], what was measured?
call: inactive

For CG14491 [SID104186254], how do the results read?
call: inactive

Which result is listed for noc [SID104183372]?
call: inactive

With CG10182 [SID104193994], what does the deposit list?
call: inactive

With Pi4KIIalpha [SID104192114], what was measured?
call: inactive

With Pi4KIIalpha [SID104192115], what was measured?
call: inactive

With CG16854 [SID104182328], how do the results read?
call: inactive

How did the screen score EloA [SID104195901]?
call: inactive

Which result is listed for tctn + B9d2 [SID104182952]?
call: inactive

How did the screen score prom [SID104184476]?
call: inactive

Which result is listed for prom [SID104201201]?
call: inactive

With prom [SID104201658], what was measured?
call: inactive

With aay [SID104191112], what was measured?
call: inactive

With Agpat4 [SID104190238], what does the deposit list?
call: inactive

With CG14839 [SID104194755], what was measured?
call: inactive

What is on record for CG18180 [SID104190096]?
call: inactive

What did the screen give for CG34150 [SID104193481]?
call: inactive

How did the screen score Mco1 [SID104182512]?
call: inactive

What did the screen give for S2P [SID104187103]?
call: inactive

Which result is listed for BORCS7 + CG13430 [SID104186184]?
call: inactive

What did the screen give for BORCS7 + CG13430 [SID104186499]?
call: inactive

How did the screen score vap [SID104200067]?
call: inactive

How did the screen score CG17944 [SID104192364]?
call: inactive

What did the screen give for PXo [SID104189526]?
call: inactive

Which result is listed for CG8565 [SID104199904]?
call: inactive

How did the screen score Psi [SID104187311]?
call: inactive

What is on record for Cnep1r2 [SID104190742]?
call: inactive

With geko [SID104189836], what does the deposit list?
call: inactive

How did the screen score geko [SID104189837]?
call: inactive

What is on record for shams [SID104196382]?
call: inactive

What is on record for Pgam5 [SID104198343]?
call: inactive

With CG32054 [SID104190476], what does the deposit list?
call: inactive

For CG7133 [SID104191590], what does the deposit list?
call: inactive

For eIF3g2 [SID104194067], what was measured?
call: inactive

Which result is listed for Rsph1 [SID104182656]?
call: inactive

With Galphas [SID104184408], what was measured?
call: inactive

With GlcAT-S [SID104182523], what does the deposit list?
call: inactive

For CG9649 [SID104196326], what was measured?
call: inactive

For Muc30E [SID104180893], what does the deposit list?
call: inactive

How did the screen score Elba2 [SID104180523]?
call: inactive

Which result is listed for UQCR-Q [SID104190678]?
call: inactive

What is on record for dyl [SID104188258]?
call: inactive

With dyl [SID104188259], what does the deposit list?
call: inactive

For CG32228 [SID104201809], how do the results read?
call: inactive

With dpa [SID104187396], what was measured?
call: inactive

Which result is listed for upd1 [SID104200150]?
call: inactive

With RFeSP [SID104180494], how do the results read?
call: inactive

For Rim2 [SID104179865], what does the deposit list?
call: inactive

What did the screen give for Rim2 [SID104180312]?
call: inactive

With Rim2 [SID104202085], how do the results read?
call: inactive

How did the screen score Unc50 [SID104196353]?
call: inactive

What did the screen give for GluProRS [SID104193887]?
call: inactive

Which result is listed for CG14174 [SID104189967]?
call: inactive

Reprinted from the listing for reference:
upd1 [SID104200150]: call = inactive
RFeSP [SID104180494]: call = inactive
Rim2 [SID104179865]: call = inactive
Rim2 [SID104180312]: call = inactive
Rim2 [SID104202085]: call = inactive
Unc50 [SID104196353]: call = inactive
